Measurements: PMC10212096
These are yes or no findings as the source states them, for the method shown. Binding seen in cells or lysates may run through a third protein.

Protein sequences, listed by entry. Tags and fused reporters are not part of them.
UniProt Q9SXZ2: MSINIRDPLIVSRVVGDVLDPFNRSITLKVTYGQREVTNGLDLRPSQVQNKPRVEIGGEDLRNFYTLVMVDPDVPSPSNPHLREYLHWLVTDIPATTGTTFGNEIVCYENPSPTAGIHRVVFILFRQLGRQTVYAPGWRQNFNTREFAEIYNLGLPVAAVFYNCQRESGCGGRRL
UniProt Q39057: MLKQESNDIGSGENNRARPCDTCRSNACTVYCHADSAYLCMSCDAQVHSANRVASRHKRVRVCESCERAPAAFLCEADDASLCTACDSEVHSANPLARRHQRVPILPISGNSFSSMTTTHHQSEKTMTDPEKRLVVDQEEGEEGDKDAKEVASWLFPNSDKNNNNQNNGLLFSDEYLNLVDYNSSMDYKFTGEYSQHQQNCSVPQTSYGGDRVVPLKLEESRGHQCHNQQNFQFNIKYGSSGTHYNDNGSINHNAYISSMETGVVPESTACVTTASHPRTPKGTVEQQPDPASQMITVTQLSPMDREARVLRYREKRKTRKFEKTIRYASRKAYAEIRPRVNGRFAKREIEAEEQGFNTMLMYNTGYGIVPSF

Target: FT with C-terminal GFP (Arabidopsis thaliana) (UniProt Q9SXZ2)
Assay: co-IP; co-agroinfiltration of N. benthamiana leaves in pairs; GFP-tagged FT or TFL1 precipitated with anti-GFP nanobody beads (GFP-trapA); 5xMyC-tagged proteins detected with anti-MyC

binding: no binding
Sequence: CONSTANS (CO) with N-terminal 5xMyC (from UniProt Q39057 1-373)
